Assay results: patent US11846640B2, “Identification of anticoagulants in a sample” (DSM IP Assets B.V., priority 2013, dated 2023)
For at least one compound, name, drawing or mass did not settle the structure.

Assays:
Assay type in all cases: biochemical, human
plasma samples [1] = test: PT (HemosIL PT recombiplastin) clotting time; details: Table 6, spiked plasma, mean
Experimental: (§1) In order to address the above question, i.e. to determine the nature of an anticoagulant in a sample, a combination of several methods has to be performed, including PiCT® Method 1, PiCT® Method 4, aPTT (HemosIL™ aPTT SP), PT (HemosIL™ PT recombiplastin), and sometimes even a modified PiCT® Method 1 wherein polybrene has been added. In order to simulate this, plasma samples spiked with different levels of anticoagulants were analyzed using the ACL TOP® 500 analyzer.

plasma samples [2] = test: aPTT (HemosIL aPTT SP) clotting time; details: Table 6, spiked plasma, mean
Experimental: as §1, with “analyzer. For each drug, a specific pattern was obtained, i.e. clotting times within the RR and clotting times above the RR, depending on the used testing method, which is unique at least for the class of anticoagulant or even for a specific anticoagulant.” for “analyzer.”

plasma samples [3] = test: PiCT Method 1 with polybrene added, clotting time; details: Table 6, spiked plasma, mean
Source text: By the addition of polybrene a distinction can be done, which of the anticoagulants is really present in the sample: if after addition of polybrene the measured clotting times are again back to RR when using the PiCT® Method 1, the sample comprises heparins, such as e.g. UFH or LMWH. Alternatively, if the result is not going back to RR, the sample comprises low concentrations of dabigatran or hirudin. […] The particular clotting times measured for the different anticoagulants are shown in Table 6, which is an example of results obtained in spiked plasma samples.
as §1, with “analyzer. For each drug, a specific pattern was obtained, i.e. clotting times within the RR and clotting times above the RR, depending on the used testing method, which is unique at least for the class of anticoagulant or even for a specific anticoagulant.” for “analyzer.”

normal plasma pool (NPP) [4] = test: PiCT Method 4 (inverted PiCT) clotting time on ACL TOP 500
Experimental: The present invention is in one aspect directed to the use of a clotting assay, in particular the PiCT® testing method on a detection system such as e.g. the ACL TOP® 500 analyzer and to a method to quantitatively and qualitatively detect anticoagulants in a sample, e.g. blood or plasma. […] PiCT® Method 4 or PiCT® inverted includes that first the start reagent is added to the sample, the mixture allowed to proceed according to the manufacturer's instructions followed by addition of the activator, i.e. a reversed order compared to standard PiCT® (see above). PiCT® Method 1 to 4 is described in more detail in the Examples.
(§2) The 4 methods (see above) are in more detail described in the Examples. Specific pipetting schemes were designed using NPP spiked with incremental amounts of anticoagulants in order to achieve high reproducibility of the test system, which is required for drug identification including use in a POC system. With regards to the ACL TOP® 500 analyzer, PiCT® Method 1 to 4 has been established as follows: • PiCT® Method 1: 50 μl of plasma is incubated for 180 sec with 50 μl of reagent 1 and afterwards 50 μl of reagent 2 is added and the time to clot is recorded on the ACL TOP® 500 (i.e. pipetting scheme: P-50/A-50/I-180/50-S).
After calculation of the RR for the different kind of anticoagulants (see Example 1) samples of NPP spiked with incremental amounts of anticoagulants were used in the ACL TOP® 500, wherein 45 μl start reagent was incubated with 140 μl plasma for 60 sec. The time to clot was recorded after addition of 40 μl of activator (i.e. so-called inverted PiCT®).

normal plasma pool (NPP) [5] = test: PiCT Method 1 (standard Pefakit PiCT) clotting time on ACL TOP 500; details: for Clotting time with PiCT ® Method 1: spiked plasma
Source text: As described by Korte et al. (supra) or in EP 1240528, Pefakit® PiCT® is a functional clotting assay based on the direct activation of the prothrombinase complex which results in a fine-tuned analytical output directly proportional to the final anticoagulant activity of the factor Xa or factor IIa inhibitors (see Calatzis, Haemostasis 2000, 30:172-174). To perform the Pefakit® PiCT® test (referred to herein as standard “PiCT® or PiCT® Method 1), a defined amount of PiCT® activator (=reagent 1) is added to a sample, such as, e.g., plasma. The mixture is allowed to proceed at 37° C. for a specific period of time. The Start reagent (=reagent 2) is then added to the mixture and the time required for clot formation is measured. The presence of anticoagulants in the samples dose-dependently prolongs the time to clot. Pefakit® PiCT® is adapted to laboratory instruments based on mechanical or optical detection systems, including but not limited to ACL TOP® family (Instrumentation Laboratory), preferably ACL TOP® 500, STA Compact® series (Stago) or the BCS® XP series (Siemens).
as §2, with “P-50/A-50/I-180/50-S). This method is in particularly useful for detection of UFH, LMWH or hirudin. • PiCT® Method 2: P-75/A-65/I-180/35-S on the ACL TOP® 500 or P-80/A-65/I-180/40-S on the STA Compact® or P-75/A-65/I-180/S-40 on the BCS® XP. This method is in particularly useful for fondaparinux. • PiCT® Method 3: P-90/A-70/I-180/40-S on the ACL TOP® 500 or STA Compact®, or P-70/A-60/I-180/45-S on the BCS® XP. This method is in particularly useful for dabigatran or argatroban. • PiCT® Method 4: P-140/S-45/I160/A-40 on the ACL TOP® 500 or STA Compact®, or P-125/S-45/I-150/A-40 on the BCS® XP. This method is in particularly useful for rivaroxaban or apixaban.” for “P-50/A-50/I-180/50-S).”
With the normal PiCT®, i.e. PiCT® Method 1, wherein 50 μl of plasma is mixed with the same amount of reagent 1 (PiCT® activator), incubated for 180 sec and mixed with the same amount of reagent 2 (PiCT® start reagent) in a ACL TOP® 500 analyzer, the presence of NOACs cannot be determined in a sample. This is true even at high levels of said drugs in the sample, i.e. in the range of 300 ng/ml. Thus, in order to determine which NOAC is present in the sample, a combination of PiCT® Method 1 and PiCT® method 4 has to be used (see above for detailed description). To confirm this, spiked plasma samples with different levels of NOACs were prepared and the clotting time measured using first PiCT® Method 1 followed by PiCT® Method 4. […] In case of dabigatran present in the sample, both PiCT® Method 1 (which had to be adapted, i.e. PiCT® Method 3) and 4 are out of range as indicated in bold.

normal plasma pool (NPP) [6] = test: PiCT Method 3 clotting time on ACL TOP 500; details: for Clotting time: Table 9A, PiCT Method 3, NPP spiked, mean n = 4; for PiCT ® method 3 clotting time: Table 12, spiked plasma
Source text: The 4 methods (see above) are in more detail described in the Examples. Specific pipetting schemes were designed using NPP spiked with incremental amounts of anticoagulants in order to achieve high reproducibility of the test system, which is required for drug identification including use in a POC system. […] […]-50/I-180/50-S). […] […]-65/I-180/35-S on the ACL TOP® 500 or […]-65/I-180/40-S on the STA Compact® or […]-65/[…]-40 on the BCS® XP. […] […]-70/I-180/40-S on the ACL TOP® 500 or STA Compact®, or […]-60/I-180/45-S on the BCS® XP.

normal plasma pool (NPP) [7] = test: PiCT Method 2 clotting time on ACL TOP 500; details: Table 8, PiCT Method 2, NPP spiked, mean n = 4

SMILES: [H]/N=C(/N)c1ccc(NCc2nc3cc(C(=O)N(CCC(=O)O)c4ccccn4)ccc3n2C)cc1 [dabigatran]
- Clotting time with PT (plasma samples [1]; 50 ng): 11.4 s
- Clotting time with PT (plasma samples [1]; 300 ng): 14.4 s
- Clotting time with aPTT (plasma samples [2]; 50 ng): 39.6 s
- Clotting time with aPTT (plasma samples [2]; 300 ng): 75.9 s
- Clotting time with PiCT ® Method 1 + polybrene (plasma samples [3]; 50 ng): 59.7 s
- Clotting time with PiCT ® Method 1 + polybrene (plasma samples [3]; 300 ng): 103.8 s
- Clotting time with PiCT ® Method 4 (normal plasma pool (NPP) [4]; Table 4, NPP spiked with 20 ng per ml): 60 s
- Clotting time with PiCT ® Method 4 (normal plasma pool (NPP) [4]; Table 4, NPP spiked with 35 ng per ml): 80 s
- Clotting time with PiCT ® Method 4 (normal plasma pool (NPP) [4]; Table 5, spiked plasma, 20 ng per ml): 60 s
- Clotting time with PiCT ® Method 4 (normal plasma pool (NPP) [4]; Table 5, spiked plasma, 35 ng per ml): 80 s
- Clotting time with PiCT ® Method 4 (normal plasma pool (NPP) [4]; Table 5, spiked plasma, 300 ng per ml): 278.1 s
- Clotting time with PiCT ® Method 4 (normal plasma pool (NPP) [4]; Table 6, spiked plasma, 50 ng, mean): 100.7 s
- Clotting time with PiCT ® Method 4 (normal plasma pool (NPP) [4]; Table 6, spiked plasma, 300 ng, mean): 278.1 s
- Clotting time with PiCT ® Method 1 (normal plasma pool (NPP) [5]; Table 5, 20 ng per ml (title: Method 3 for dabigatran)): 37 s
- Clotting time with PiCT ® Method 1 (normal plasma pool (NPP) [5]; Table 5, 35 ng per ml (title: Method 3 for dabigatran)): 45 s
- Clotting time with PiCT ® Method 1 (normal plasma pool (NPP) [5]; Table 5, 300 ng per ml (title: Method 3 for dabigatran)): 117.5 s
- Clotting time with PiCT ® Method 1 (normal plasma pool (NPP) [5]; Table 6, 50 ng, mean): 56.2 s
- Clotting time with PiCT ® Method 1 (normal plasma pool (NPP) [5]; Table 6, 300 ng, mean): 117.5 s
- Clotting time with standard PiCT (Method 1) relative to reference range (RR) (normal plasma pool (NPP) [5]; dabigatran present in the sample): above the RR
- Clotting time (normal plasma pool (NPP) [6]; 5 ng/ml): 56 s
- Clotting time (normal plasma pool (NPP) [6]; 10 ng/ml): 70 s
- Clotting time (normal plasma pool (NPP) [6]; 50 ng/ml): 122 s
- Clotting time (normal plasma pool (NPP) [6]; 100 ng/ml): 153 s
- Clotting time (normal plasma pool (NPP) [6]; 200 ng/ml): 190 s
- Clotting time (normal plasma pool (NPP) [6]; 300 ng/ml): 207 s
- Clotting time (normal plasma pool (NPP) [6]; 400 ng/ml): 220 s
- Clotting time (normal plasma pool (NPP) [6]; 500 ng/ml): 234 s
- Clotting time (normal plasma pool (NPP) [6]; 600 ng/ml): 245 s
- Clotting time (normal plasma pool (NPP) [6]; 750 ng/ml): 253 s
- PiCT ® method 3 clotting time (normal plasma pool (NPP) [6]; 20 ng/mL (wash off level)): 84 sec (n = 11)
- PiCT ® method 3 clotting time (normal plasma pool (NPP) [6]; 40 ng/mL (wash off level)): 109 sec (n = 11)

SMILES: CO[C@H]1O[C@H](COS(=O)(=O)O)[C@@H](O[C@@H]2O[C@@H](C(=O)O)[C@@H](O[C@H]3O[C@H](COS(=O)(=O)O)[C@@H](O[C@@H]4O[C@H](C(=O)O)[C@@H](O[C@H]5O[C@H](COS(=O)(=O)O)[C@@H](O)[C@H](O)[C@H]5NS(=O)(=O)O)[C@H](O)[C@H]4O)[C@H](OS(=O)(=O)O)[C@H]3NS(=O)(=O)O)[C@H](O)[C@H]2OS(=O)(=O)O)[C@H](O)[C@H]1NS(=O)(=O)O [fondaparinux]
- Clotting time with PT (plasma samples [1]; 0.3 mg): 11.0 s
- Clotting time with PT (plasma samples [1]; 1.3 mg): 11.4 s
- Clotting time with aPTT (plasma samples [2]; 0.3 mg): 33.2 s
- Clotting time with aPTT (plasma samples [2]; 1.3 mg): 35.1 s
- Clotting time (normal plasma pool (NPP) [7]; 0.2 μg/ml): 78 s
- Clotting time (normal plasma pool (NPP) [7]; 0.4 μg/ml): 92 s
- Clotting time (normal plasma pool (NPP) [7]; 0.5 μg/ml): 98 s
- Clotting time (normal plasma pool (NPP) [7]; 0.6 μg/ml): 103 s
- Clotting time (normal plasma pool (NPP) [7]; 0.9 μg/ml): 120 s
- Clotting time (normal plasma pool (NPP) [7]; 1.3 μg/ml): 133 s
- Clotting time (normal plasma pool (NPP) [7]; 1.5 μg/ml): 139 s
- Clotting time (normal plasma pool (NPP) [7]; 1.8 μg/ml): 148 s
- Clotting time (normal plasma pool (NPP) [7]; 2.0 μg/ml): 155 s
- Clotting time with PiCT ® Method 4 (normal plasma pool (NPP) [4]; Table 4, NPP spiked with 0.3 μg per ml): 57 s
- Clotting time with PiCT ® Method 4 (normal plasma pool (NPP) [4]; Table 6, spiked plasma, 0.3 mg, mean): 56.6 s
- Clotting time with PiCT ® Method 4 (normal plasma pool (NPP) [4]; Table 6, spiked plasma, 1.3 mg, mean): 138.9 s
- Clotting time with PiCT ® Method 1 (normal plasma pool (NPP) [5]; Table 6, 0.3 mg, mean): 53.8 s
- Clotting time with PiCT ® Method 1 (normal plasma pool (NPP) [5]; Table 6, 1.3 mg, mean): 84.7 s
